Our source for the binding values is publication PMC3793001.

Sequences of proteins named here, by UniProt entry; tags and fusion partners are left off. Residues count along the entry.
UniProt Q99720: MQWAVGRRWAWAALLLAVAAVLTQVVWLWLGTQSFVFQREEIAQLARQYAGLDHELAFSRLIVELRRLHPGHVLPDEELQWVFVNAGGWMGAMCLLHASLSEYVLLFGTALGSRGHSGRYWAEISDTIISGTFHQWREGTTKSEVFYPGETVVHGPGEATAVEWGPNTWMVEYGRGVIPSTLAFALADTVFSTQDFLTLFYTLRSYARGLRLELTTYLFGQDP
UniProt P15209, residues 32-821: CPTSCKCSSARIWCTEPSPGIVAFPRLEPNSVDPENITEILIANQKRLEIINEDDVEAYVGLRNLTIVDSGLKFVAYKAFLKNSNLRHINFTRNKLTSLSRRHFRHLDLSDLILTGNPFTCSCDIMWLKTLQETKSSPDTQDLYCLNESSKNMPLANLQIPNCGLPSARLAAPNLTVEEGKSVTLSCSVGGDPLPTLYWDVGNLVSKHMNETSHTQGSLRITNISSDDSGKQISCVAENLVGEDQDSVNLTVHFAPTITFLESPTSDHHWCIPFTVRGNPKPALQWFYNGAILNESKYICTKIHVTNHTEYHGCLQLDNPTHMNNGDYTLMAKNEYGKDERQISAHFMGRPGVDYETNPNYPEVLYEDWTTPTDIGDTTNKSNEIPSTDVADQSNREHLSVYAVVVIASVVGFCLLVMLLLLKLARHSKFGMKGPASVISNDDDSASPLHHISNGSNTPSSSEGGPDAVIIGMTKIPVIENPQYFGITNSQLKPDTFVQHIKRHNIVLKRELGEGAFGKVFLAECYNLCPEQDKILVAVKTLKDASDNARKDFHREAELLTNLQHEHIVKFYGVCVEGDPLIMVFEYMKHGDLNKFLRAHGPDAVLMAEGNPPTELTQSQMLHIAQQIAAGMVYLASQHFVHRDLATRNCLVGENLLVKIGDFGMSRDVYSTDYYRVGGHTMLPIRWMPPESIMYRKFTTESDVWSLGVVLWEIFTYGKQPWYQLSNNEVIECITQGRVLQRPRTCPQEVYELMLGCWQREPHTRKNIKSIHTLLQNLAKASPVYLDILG
UniProt O55242: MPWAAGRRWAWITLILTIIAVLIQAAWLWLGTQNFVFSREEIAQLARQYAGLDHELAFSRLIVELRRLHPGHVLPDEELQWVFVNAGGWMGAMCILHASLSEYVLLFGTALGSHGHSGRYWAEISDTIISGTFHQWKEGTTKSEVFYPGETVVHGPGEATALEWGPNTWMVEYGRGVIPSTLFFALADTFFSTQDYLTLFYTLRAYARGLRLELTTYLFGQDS

Results are given in words; binding and its absence hold for the method and conditions named. Binding seen in cells or lysates may run through a third protein. Some entries that bind do so weakly or less than the wild type.

The target of assay [1] is Myc-tagged full-length sigma-1 receptor (human) (UniProt Q99720). In words: co-IP; HEK 293T cells transiently transfected with Sig-1R-Myc and/or HA-TrkB, with or without PRE-084 (10 µM, 1 h); lysis in 50 mM Tris-HCl pH 8.0, 150 mM NaCl, 1% NP-40, 1 mM EDTA, 10% glycerol; IP with anti-Myc or anti-HA antibody, 4°C; blots with anti-HA and anti-Myc.
Assay [2] concerns the target HA-tagged full-length TrkB (UniProt P15209). Described as above.
For assay [3], the target named is Sigma-1 receptor (endogenous, cerebellar granule neurons) (mouse (endogenous in CGNs)) (UniProt O55242). As to the kind of experiment: co-IP; endogenous proteins in lysates of mouse CGNs, with or without PRE-084 (20 µM, 1 h); IP with anti-Sig-1R antibody, blots with anti-TrkB and anti-Sig-1R; lysis in 50 mM Tris-HCl pH 8.0, 150 mM NaCl, 1% NP-40, 1 mM EDTA, 10% glycerol, 4°C.

For the substance “HA-tagged full-length TrkB (from UniProt P15209 32-821) (receptor)”, the binding entry in assay [1] is reported as “binds”.

On to “Myc-tagged full-length sigma-1 receptor (from UniProt Q99720 1-223)”, for which the binding entry in assay [2] was “binds”.

For the substance “TrkB (endogenous, cerebellar granule neurons) (from UniProt P15209 32-821) (receptor)”, the binding entry in assay [3] is “binds”.
